Experimental data: patent publication US9446044B2, “DYRK1 inhibitors and uses thereof” (DIAXONHIT, priority 2011, dated 2016)

Chains of the proteins cited; added tags and fusions are not shown.
UniProt Q9Y463, whole entry: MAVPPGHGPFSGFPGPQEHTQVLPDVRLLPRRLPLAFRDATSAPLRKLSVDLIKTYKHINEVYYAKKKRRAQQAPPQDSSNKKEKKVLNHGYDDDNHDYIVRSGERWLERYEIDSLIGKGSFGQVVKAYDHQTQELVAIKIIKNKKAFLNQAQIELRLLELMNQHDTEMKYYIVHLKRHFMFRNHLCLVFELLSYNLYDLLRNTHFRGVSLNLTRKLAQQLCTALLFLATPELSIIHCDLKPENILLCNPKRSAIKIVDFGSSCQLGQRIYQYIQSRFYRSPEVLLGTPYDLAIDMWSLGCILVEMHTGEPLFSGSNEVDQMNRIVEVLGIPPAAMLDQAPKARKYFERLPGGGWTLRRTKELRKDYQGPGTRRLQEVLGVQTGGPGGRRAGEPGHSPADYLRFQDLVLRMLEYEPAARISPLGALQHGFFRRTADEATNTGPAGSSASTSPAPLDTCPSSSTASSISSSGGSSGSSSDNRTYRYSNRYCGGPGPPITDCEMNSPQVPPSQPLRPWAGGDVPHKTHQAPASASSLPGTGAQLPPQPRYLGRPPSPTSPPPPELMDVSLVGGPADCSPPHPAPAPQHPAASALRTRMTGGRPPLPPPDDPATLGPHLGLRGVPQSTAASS

Biological target: DYRK1B (Homo sapiens (Human), UniProt Q9Y463)
Test: DYRK1B kinase assay (HotSpot, Reaction Biology)
Type: biochemical

With `COc1ccc2c(c1)[nH]c1c(C)nccc12` [Harmine, reference compound] the IC50 was 27.9 nM.
